# No constants are given. Whether binding was seen depends on the method and setting. In cells and extracts the contact can be indirect. Some binding calls cover weakened binding; strength is not graded here.
# The chains behind the UniProt entries cited, without tags or fusion partners. Residues count along the entry.
# UniProt P25311, residues 21-298: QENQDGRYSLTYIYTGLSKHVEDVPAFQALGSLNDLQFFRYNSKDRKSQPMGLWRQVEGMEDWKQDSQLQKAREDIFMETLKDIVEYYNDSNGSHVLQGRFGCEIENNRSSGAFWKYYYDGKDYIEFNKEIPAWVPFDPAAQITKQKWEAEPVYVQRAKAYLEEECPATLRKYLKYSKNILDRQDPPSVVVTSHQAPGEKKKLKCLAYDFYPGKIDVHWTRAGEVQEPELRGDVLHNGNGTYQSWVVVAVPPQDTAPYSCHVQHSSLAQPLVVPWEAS
# UniProt P21333: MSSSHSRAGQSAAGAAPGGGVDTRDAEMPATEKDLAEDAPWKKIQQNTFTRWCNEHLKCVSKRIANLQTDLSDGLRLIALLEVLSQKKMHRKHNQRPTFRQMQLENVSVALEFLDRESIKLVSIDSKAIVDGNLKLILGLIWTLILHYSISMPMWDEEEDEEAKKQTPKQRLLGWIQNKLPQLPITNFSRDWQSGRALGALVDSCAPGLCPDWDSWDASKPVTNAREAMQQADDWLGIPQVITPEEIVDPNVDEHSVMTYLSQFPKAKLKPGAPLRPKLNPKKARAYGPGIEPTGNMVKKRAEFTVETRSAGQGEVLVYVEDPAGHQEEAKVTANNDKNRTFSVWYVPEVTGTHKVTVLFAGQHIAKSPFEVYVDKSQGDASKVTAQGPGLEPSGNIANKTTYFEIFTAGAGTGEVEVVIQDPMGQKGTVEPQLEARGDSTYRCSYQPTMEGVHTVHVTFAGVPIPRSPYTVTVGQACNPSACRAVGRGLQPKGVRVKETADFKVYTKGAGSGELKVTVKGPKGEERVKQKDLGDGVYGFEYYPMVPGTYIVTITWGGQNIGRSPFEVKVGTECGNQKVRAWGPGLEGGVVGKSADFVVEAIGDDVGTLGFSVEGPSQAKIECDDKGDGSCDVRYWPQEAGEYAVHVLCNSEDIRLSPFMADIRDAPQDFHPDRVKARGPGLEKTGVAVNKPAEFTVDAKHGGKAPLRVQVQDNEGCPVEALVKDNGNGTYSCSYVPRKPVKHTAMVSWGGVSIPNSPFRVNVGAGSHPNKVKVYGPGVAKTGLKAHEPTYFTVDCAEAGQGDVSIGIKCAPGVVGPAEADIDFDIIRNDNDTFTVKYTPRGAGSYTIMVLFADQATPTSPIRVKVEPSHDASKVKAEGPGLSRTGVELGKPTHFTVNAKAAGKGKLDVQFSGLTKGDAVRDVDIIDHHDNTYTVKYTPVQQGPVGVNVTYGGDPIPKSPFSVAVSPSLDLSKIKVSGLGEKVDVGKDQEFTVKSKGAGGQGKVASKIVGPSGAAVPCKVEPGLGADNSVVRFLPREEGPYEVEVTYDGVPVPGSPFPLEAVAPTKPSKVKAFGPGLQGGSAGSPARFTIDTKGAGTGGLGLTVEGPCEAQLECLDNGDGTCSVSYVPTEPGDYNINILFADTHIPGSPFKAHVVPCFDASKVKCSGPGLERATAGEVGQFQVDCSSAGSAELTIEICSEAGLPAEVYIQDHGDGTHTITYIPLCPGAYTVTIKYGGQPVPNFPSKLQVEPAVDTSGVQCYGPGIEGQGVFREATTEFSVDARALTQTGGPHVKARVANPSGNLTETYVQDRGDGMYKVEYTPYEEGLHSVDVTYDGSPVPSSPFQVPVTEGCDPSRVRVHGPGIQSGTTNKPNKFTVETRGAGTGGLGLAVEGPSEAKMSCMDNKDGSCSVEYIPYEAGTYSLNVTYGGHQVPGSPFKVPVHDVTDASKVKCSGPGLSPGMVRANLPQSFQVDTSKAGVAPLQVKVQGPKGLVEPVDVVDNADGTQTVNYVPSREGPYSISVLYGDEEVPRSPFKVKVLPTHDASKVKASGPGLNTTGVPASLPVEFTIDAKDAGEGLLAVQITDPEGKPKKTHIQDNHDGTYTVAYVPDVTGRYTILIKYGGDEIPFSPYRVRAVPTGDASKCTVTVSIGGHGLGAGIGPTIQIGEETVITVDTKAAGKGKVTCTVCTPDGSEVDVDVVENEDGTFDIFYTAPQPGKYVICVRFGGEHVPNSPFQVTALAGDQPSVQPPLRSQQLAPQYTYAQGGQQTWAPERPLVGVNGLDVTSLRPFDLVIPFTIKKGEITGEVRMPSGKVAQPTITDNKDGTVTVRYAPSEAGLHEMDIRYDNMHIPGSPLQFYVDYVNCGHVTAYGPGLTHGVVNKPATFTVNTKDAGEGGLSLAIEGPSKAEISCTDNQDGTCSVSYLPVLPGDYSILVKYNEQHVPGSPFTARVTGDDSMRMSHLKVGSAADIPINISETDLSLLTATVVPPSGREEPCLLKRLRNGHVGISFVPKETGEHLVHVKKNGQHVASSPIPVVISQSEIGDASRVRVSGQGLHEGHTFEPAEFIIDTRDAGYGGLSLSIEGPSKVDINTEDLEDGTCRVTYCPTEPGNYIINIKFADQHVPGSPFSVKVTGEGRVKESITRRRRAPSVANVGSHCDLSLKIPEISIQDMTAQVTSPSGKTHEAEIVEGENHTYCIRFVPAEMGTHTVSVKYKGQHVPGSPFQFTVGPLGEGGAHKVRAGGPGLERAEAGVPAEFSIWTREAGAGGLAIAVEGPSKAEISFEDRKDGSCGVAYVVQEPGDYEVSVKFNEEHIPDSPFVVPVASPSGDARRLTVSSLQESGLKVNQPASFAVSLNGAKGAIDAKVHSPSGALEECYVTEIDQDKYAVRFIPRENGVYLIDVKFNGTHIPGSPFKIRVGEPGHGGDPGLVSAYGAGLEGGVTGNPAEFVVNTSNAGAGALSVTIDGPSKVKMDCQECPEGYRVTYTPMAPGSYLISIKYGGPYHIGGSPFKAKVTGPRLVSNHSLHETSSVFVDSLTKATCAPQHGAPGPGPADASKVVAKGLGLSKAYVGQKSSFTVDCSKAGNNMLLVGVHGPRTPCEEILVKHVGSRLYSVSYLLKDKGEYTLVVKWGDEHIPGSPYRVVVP
# Assays:
# [1] = target: Zinc-α2-glycoprotein 1 (AZGP1) (human (endogenous in HCT116 and SW480)) (UniProt P25311); assay: co-IP; HCT116 and SW480 cells, endogenous proteins; lysate in RIPA buffer, 5 µl antibody (AZGP1, Sigma) and protein-A agarose beads, 3 h rotation, Western blot
# [2] = target: Zinc-α2-glycoprotein 1 (AZGP1), in HEK293 cells (human) (UniProt P25311); assay: co-IP; HEK293 cells, exogenous proteins; lysate in RIPA buffer, 5 µl antibody (AZGP1, Sigma) and protein-A agarose beads, 3 h rotation, Western blot
binding [1],binding [2],Substance
binds,,filamin A (FLNA) (from UniProt P21333 1-2647)
,binds,"filamin A (FLNA), exogenous, in HEK293 cells (from UniProt P21333 1-2647)"
